Screening data

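293T-iDUX4 dual-reporter cells; luminescence of the tet-on Italica luciferase control is read after 24 h. The test concentration is not given here. Percent change in the Italica control signal; more negative values mean stronger inhibition, which points to nonspecific, tet-on or cytotoxic effects.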

Values are in %. Common to all entries: measured here: Italica tet-on control reporter. Part of the compounds only, not a random draw; the main read-out is not listed here.

compound | activity change (%)
C[C@H]1CN([C@@H](C)CO)C(=O)CCCn2nncc2CO[C@H]1CN(C)Cc1ccc(Oc2ccccc2)cc1 | -17.21
Cc1ccccc1S(=O)(=O)N1CC[C@H]2[C@H](CO)Nc3ccc(C#Cc4ccccc4)cc3[C@H]21 | -3.271
COc1ccccc1CNC(=O)C[C@H]1CC[C@H]2[C@@H](COC[C@@H](O)CN2Cc2cccc(-c3ccncc3)c2)O1 | -19.48
CO[C@@H]1CN(C)C(=O)c2cc(NS(=O)(=O)c3cccc(F)c3)ccc2OC[C@H](C)N(Cc2cc(F)ccc2F)C[C@H]1C | -13.23
O=C(C[C@H]1C[C@H]2c3cc(NC(=O)Nc4ccccc4F)ccc3O[C@H]2[C@H](CO)O1)NCc1ccc(Oc2ccccc2)cc1 | -5.322
O=C(C[C@@H]1CC[C@@H]2[C@H](COC[C@H](O)CN2C(=O)c2ccccc2)O1)NCc1ccc(-c2ccccc2)cc1 | 3.193
COc1ccc2c3c([nH]c2c1)[C@@H](CO)N(Cc1cccc(F)c1)CC31CCN(CC2CC2)CC1 | -87.38
CCS(=O)(=O)N1CC2(CN(Cc3cccc(Cl)c3)[C@@H](CO)c3c2c2ccc(OC)cc2n3C)C1 | -18.91
CN1c2ccc(-c3ccccc3)cc2[C@H]2[C@H](CCN2C(=O)NC2CCCCC2)[C@@H]1CO | -62.07
N#Cc1ccc(-c2ccc([C@@H]3[C@@H](CO)N4C(=O)CN(C(=O)Cc5ccccc5)C[C@@H]34)cc2)cc1 | -14.47
C[C@@H](NC(=O)C[C@H]1C[C@@H]2c3cc(NC(=O)c4ccc5c(c4)OCO5)ccc3O[C@@H]2[C@@H](CO)O1)c1ccccc1 | -35.61
N#C[C@@H]1[C@H](c2ccccc2-c2cccc(F)c2)[C@H](CO)N1C(=O)Nc1cc(F)ccc1F | -26.07
CC(C)OC(=O)N(C)C[C@H]1OCc2ccccc2-c2ccccc2C(=O)N([C@@H](C)CO)C[C@H]1C | -4.234
C[C@@H]1CN([C@@H](C)CO)C(=O)c2c(c3ccccc3n2C)-c2ccccc2CO[C@@H]1CN(C)C(=O)[C@H](Cc1ccccc1)N(C)C | -19.15
COc1ccc(-c2ccccc2[C@H]2[C@@H](CO)N(C(=O)NC3CCCCC3)[C@H]2C#N)cc1 | -21.51
COc1ccc2c3c([nH]c2c1)[C@H](CO)N(C(=O)CN(C)C)CC31CCN(Cc2ccccc2)CC1 | -31.01
CO[C@H]1CN(C)C(=O)c2cc(NC(=O)c3ccc(Oc4ccccc4)cc3)ccc2OC[C@@H](C)NC[C@@H]1C | -63.81
Cc1ccccc1S(=O)(=O)N1C[C@@H]2N[C@H](C1)C2c1ccc(-c2ccc(C#N)cc2)cc1 (stereo partly shown) | -65.81
COc1ccccc1C#Cc1ccc2c(c1)[C@@H]1[C@@H](CCN1C(=O)c1ccccc1)[C@@H](CO)N2 | -2.827
C[C@@H]1CN([C@H](C)CO)C(=O)CCCn2nncc2CO[C@@H]1CN(C)Cc1ccccc1C(F)(F)F | -7.87
O=C(Nc1cc(F)ccc1F)N1CCCCN2[C@H](CO)[C@@H](c3ccc(-c4cccnc4)cc3)[C@@H]2C1 | -21.15
O=C(NCC1CC1)[C@H]1[C@H](CO)[C@H]2Cn3c(ccc(C4=CCCCC4)c3=O)[C@H]2N1Cc1ccccc1F | -10.19
COc1cccc(-c2ccc3c(c2)[C@@H]2[C@@H](CCN2S(=O)(=O)c2ccccc2F)[C@@H](CO)N3C)c1 | -16.9
CN1C(=O)c2cc(NC(=O)c3cccc(F)c3)ccc2OC[C@H]2O[C@H](CC(=O)NCC3CCCCC3)CC[C@H]21 | -34.7
N#C[C@@H]1[C@H](c2ccc(C#Cc3ccc(F)cc3)cc2)[C@@H](CO)N1C(=O)Nc1ccc(F)cc1 | -29.29
COc1ccc(C#Cc2ccc([C@H]3[C@@H](CO)N4CCCCN(C(=O)Nc5ccccc5)C[C@H]34)cc2)cc1 | -97.69
O=C(c1cccc(F)c1)N1CCCCN2[C@H](CO)[C@H](c3ccc(/C=C/c4ccccc4)cc3)[C@H]2C1 | -34.1
COc1ccc2c3c([nH]c2c1)[C@H](CO)N(Cc1ccccc1Cl)CC31CN(C(=O)C2CC2)C1 | -33.37
O=C(Cc1ccccn1)N1CCCCN2[C@H](C1)[C@@H](c1ccc(C#Cc3ccccc3)cc1)[C@@H]2CO | -28.19
O=C(c1ccccn1)N1CC(=O)N2[C@H](CO)[C@@H](c3ccc(C#Cc4ccccc4)cc3)[C@@H]2C1 | -26.64
COCC(=O)Nc1ccc2c(c1)C(=O)N(C)C[C@@H](OC)[C@@H](C)CN(CCc1ccccc1)[C@H](C)CO2 | 0.4447
OC[C@@H]1Nc2ccc(C#Cc3cccc(F)c3)cc2[C@@H]2NCC[C@H]12 | -2.094
Cc1cccc(-c2ccc(C3[C@@H]4CN(C(=O)c5ccncc5)C[C@H]3N4)cc2)c1 (stereo partly shown) | -4.412
COc1ccc2c3c([nH]c2c1)[C@H](CO)N(Cc1ccccc1F)CC31CN(CC2CC2)C1 | -26
COc1cccc(C#Cc2ccc3c(c2)[C@H]2[C@H](CCN2C(=O)Cc2ccccc2)[C@@H](CO)N3C)c1 | -3.373
O=C(c1cccc(F)c1)N1CCCCN2[C@@H](CO)[C@H](c3ccc(C#CC4(O)CCCC4)cc3)[C@@H]2C1 | -7.259
O=C(C1CCCC1)N1[C@@H](CO)[C@@H](c2ccccc2)C12CN(CCC(F)(F)F)C2 | -5.438
CN1c2ccc(-c3cccc(C#N)c3)cc2[C@@H]2[C@@H](CCN2C(=O)NC2CCCC2)[C@H]1CO | -24.09
O=C(NC1Cc2ccccc2C1)[C@H]1[C@H](CO)[C@H]2Cn3c(ccc(C4=CCCCC4)c3=O)[C@@H]1N2CC1CC1 | -3.848
O=C(Nc1ccc(F)cc1)N1CCCCN2[C@H](CO)[C@H](c3ccc(-c4cccc(F)c4)cc3)[C@H]2C1 | -83.02
O=C(C1CCC1)N1CC[C@@H]2[C@H](CO)Nc3ccc(-c4cccc(F)c4)cc3[C@@H]21 | -42.28
COc1ccc2c3c([nH]c2c1)[C@H](CO)N(Cc1cccc(F)c1)CC31CCN(Cc2ccccn2)CC1 | -72.59

4 of the entries, repeated:

* O=C(c1cccc(F)c1)N1CCCCN2[C@H](CO)[C@H](c3ccc(/C=C/c4ccccc4)cc3)[C@H]2C1 | activity change -34.1%
* C[C@@H](NC(=O)C[C@H]1C[C@@H]2c3cc(NC(=O)c4ccc5c(c4)OCO5)ccc3O[C@@H]2[C@@H](CO)O1)c1ccccc1 | activity change -35.61%
* O=C(Cc1ccccn1)N1CCCCN2[C@H](C1)[C@@H](c1ccc(C#Cc3ccccc3)cc1)[C@@H]2CO | activity change -28.19%
* C[C@@H]1CN([C@H](C)CO)C(=O)CCCn2nncc2CO[C@@H]1CN(C)Cc1ccccc1C(F)(F)F | activity change -7.87%

The results are deposited in PubChem (AID1224904; Broad Institute, 2016).